# Test results reported in PubChem BioAssay (NCATS).
# Inconclusive results, whose numbers are uncertain, are shown with a selection of clear calls. Potencies beside an inconclusive call are fits to weak or partial responses and may not hold up. Activity calls are given as the source filed them. Calls follow the shape of the dose curve; as a rule, active = well fitted curve in the direction sought with a large enough effect; inconclusive = small, poorly fitted or top-dose-only effect, or another doubt; inactive = no such curve, though single readings can be large; an effect the other way counts as inactive or inconclusive.
# Columns and labels:
# [1] = Quantitative High-Throughput drug screen in 47 multiple myeloma cell lines against the NCATS MIPE library collection: KMS20_JCRB cell viability assay (AID 1918973); conditions: CellTiter-Glo ATP, 48 h; viability (% of DMSO): at 45.8 µM (top of the series); also: nearly all actives have a fitted effect of over 45% in size
# How it was run: (§1)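 Myeloma cells (500 per well) were exposed to MIPE 4.0 compounds by pin transfer and incubated 48 hours at 37C, 5% CO2. Viability was read as ATP by CellTiter-Glo luminescence, normalised to DMSO (100%) and media-only (0%) wells.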
# [2] = Quantitative High-Throughput drug screen in 47 multiple myeloma cell lines against the NCATS MIPE library collection: KMS21BM_JCRB cell viability assay (AID 1918974); conditions: ATP luminescence, 48 h; viability: at 45.8 µM (top of the series) unless noted
# How it was run: as §1
# [3] = Quantitative High-Throughput drug screen in 47 multiple myeloma cell lines against the NCATS MIPE library collection: KMS26_JCRB cell viability assay (AID 1918975); conditions: KMS26 myeloma cells viability, CellTiter-Glo ATP, 48 h; viability (% of DMSO): at 45.8 µM (top of the series); also: nearly all actives have a fitted effect of over 45% in size
# How it was run: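 Myeloma cell lines, 500 cells per well, exposed to MIPE 4.0 library compounds for 48 h at 37C, 5% CO2. Viability from ATP by CellTiter-Glo luminescence; normalised to DMSO (100%) and media-only (0%) wells.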
# [4] = Quantitative High-Throughput drug screen in 47 multiple myeloma cell lines against the NCATS MIPE library collection: MMM1_PLB cell viability assay (AID 1918976); also: nearly all actives have a fitted effect of over 35% in size
# How it was run: (§2)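 MIPE 4.0 approved/investigational drugs; 500 cells/well; 48 h 37 °C humidified 5% CO2; CTG luminescence readout; DMSO = 100%, media = 0% viability.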
# [5] = Quantitative High-Throughput drug screen in 47 multiple myeloma cell lines against the NCATS MIPE library collection: MOLP8_DSMZ cell viability assay (AID 1918977); conditions: MOLP8 myeloma viability, CellTiter-Glo ATP luminescence, 48 h; viability (% of control): at 45.8 µM (top of the series); also: nearly all actives have a fitted effect of over 45% in size
# How it was run: as §2
# [6] = Quantitative High-Throughput drug screen in 47 multiple myeloma cell lines against the NCATS MIPE library collection: NCIH929_DSMZ cell viability assay (AID 1918978); also: nearly all actives have a fitted effect of over 35% in size
# How it was run: as §2
# [7] = Quantitative High-Throughput drug screen in 47 multiple myeloma cell lines against the NCATS MIPE library collection: MM1S_ATCC cell viability assay (AID 1918980); also: nearly all actives have a fitted effect of over 45% in size
# How it was run: as §2
# [8] = Quantitative High-Throughput drug screen in 47 multiple myeloma cell lines against the NCATS MIPE library collection: L363_DSMZ cell viability assay (AID 1918984); conditions: L363 myeloma viability, CellTiter-Glo ATP luminescence, 48 h; viability (% of control): at 45.8 µM (top of the series); also: nearly all actives have a fitted effect of over 40% in size
# How it was run: as §2
# [9] = Quantitative High-Throughput drug screen in 47 multiple myeloma cell lines against the NCATS MIPE library collection: KMS34_JCRB cell viability assay (AID 1918985); conditions: KMS34 myeloma viability, CellTiter-Glo ATP luminescence, 48 h; viability, percent of control: at 45.8 µM (top of the series); also: nearly all actives have a fitted effect of over 40% in size
# How it was run: as §2
# [10] = Quantitative High-Throughput drug screen in 47 multiple myeloma cell lines against the NCATS MIPE library collection: OCIMY7_PLB cell viability assay (AID 1918987); conditions: OCI-MY7 myeloma viability, CellTiter-Glo ATP, 48 h; viability (% of DMSO): at 45.8 µM (top of the series); also: nearly all actives have a fitted effect of over 65% in size
# How it was run: as §2
# [11] = Quantitative High-Throughput drug screen in 47 multiple myeloma cell lines against the NCATS MIPE library collection: OCIMY5_PLB cell viability assay (AID 1918988); conditions: OCI-MY5 myeloma viability, ATP luminescence, 48 h; viability, % of control: at 45.8 µM (top of the series); also: nearly all actives have a fitted effect of over 65% in size;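 as to viability, % of control: 100% = DMSO-treated wells and 0% = wells with media alone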
# How it was run: as §2
# [12] = Quantitative High-Throughput drug screen in 47 multiple myeloma cell lines against the NCATS MIPE library collection: OPM1_PLB cell viability assay (AID 1918989); also: nearly all actives have a fitted effect of over 40% in size
# How it was run: as §2
# [13] = Quantitative High-Throughput drug screen in 47 multiple myeloma cell lines against the NCATS MIPE library collection: SKMM1_PLB cell viability assay (AID 1919863); conditions: SKMM1 myeloma viability, CellTiter-Glo ATP, 48 h; viability: stronger effect = lower value; also: nearly all actives have a fitted effect of over 35% in size
# How it was run: as §2
# [14] = Quantitative High-Throughput drug screen in 47 multiple myeloma cell lines against the NCATS MIPE library collection: U266_ATCC cell viability assay (AID 1919864); conditions: U266 myeloma viability, CellTiter-Glo ATP luminescence, 48 h; viability (% of DMSO control): at 45.8 µM (top of the series); also: nearly all actives have a fitted effect of over 35% in size
# How it was run: as §2
# [15] = Quantitative High-Throughput drug screen in 47 multiple myeloma cell lines against the NCATS MIPE library collection: XG6_PLB cell viability assay (AID 1919865); conditions: XG6 myeloma viability, CellTiter-Glo ATP luminescence, 48 h; viability (% of control): at 45.8 µM (top of the series); also: nearly all actives have a fitted effect of over 40% in size
# How it was run: as §2
# [16] = Quantitative High-Throughput drug screen in 47 multiple myeloma cell lines against the NCATS MIPE library collection: OCIMY1_PLB cell viability assay (AID 1918979); conditions: OCI-MY1 myeloma viability, CellTiter-Glo ATP, 48 h; viability: at 45.8 µM (top of the series) unless noted; also: nearly all actives have a fitted effect of over 35% in size
# How it was run: as §2
# [17] = Quantitative High-Throughput drug screen in 47 multiple myeloma cell lines against the NCATS MIPE library collection: LP1_DSMZ cell viability assay (AID 1918982); conditions: LP1 myeloma viability, CellTiter-Glo ATP luminescence, 48 h; viability (% of control): at 45.8 µM (top of the series); also: nearly all actives have a fitted effect of over 35% in size
# How it was run: as §2
# [18] = Quantitative High-Throughput drug screen in 47 multiple myeloma cell lines against the NCATS MIPE library collection: XG1_PLB cell viability assay (AID 1919866); conditions: CellTiter-Glo ATP, 48 h; viability: at 45.8 µM (top of the series); also: nearly all actives have a fitted effect of over 35% in size
# How it was run: as §2
# [19] = Quantitative High-Throughput drug screen in 47 multiple myeloma cell lines against the NCATS MIPE library collection: KMS28PE_JCRB cell viability assay (AID 1918983); also: nearly all actives have a fitted effect of over 35% in size
# How it was run: as §2
# Potency is read from the fitted curve at half-maximal effect.
compound,measurement,setting,value
Cn1c(=O)c2c(ncn2C)n(C)c1=O,Potency,[1],"inconclusive: 0.105 µM [rising, full curve, poor fit]"
same,Potency,[2],"inconclusive: 1.48 µM [rising, full curve, poor fit]"
same,Potency,[3],"inconclusive: 18.7 µM [cytotoxic, partial curve, poor fit]"
same,Potency,[4],"inconclusive: 2.96 µM [cytotoxic, full curve, poor fit]"
same,Potency,[5],"inconclusive: 33.2 µM [cytotoxic, single point]"
same,Potency,[6],inactive
same,Potency,[7],inactive
same,Potency,[8],inactive
same,Potency,[9],inactive
same,Potency,[10],"inconclusive: 8.33 µM [cytotoxic, full curve, poor fit]"
same,Potency,[11],"inconclusive: 26.4 µM [cytotoxic, partial curve, poor fit]"
same,Potency,[12],inconclusive: 0.001 µM
same,Potency,[13],"inconclusive: 1.05 µM [cytotoxic, full curve, poor fit]"
same,Potency,[14],inactive
same,Potency,[15],inactive
OC[C@H](Cc1ccccc1)Nc1nc(Oc2ccc3c(c2)CCC3)nc2c1ncn2Cc1ccc(-c2ccccc2)cc1,Potency,[1],"inconclusive: 23.5 µM [cytotoxic, partial curve, poor fit]"
same,Potency,[2],"inconclusive: 0.743 µM [rising, full curve]"
same,Potency,[3],"inconclusive: 9.35 µM [cytotoxic, partial curve, poor fit]"
same,Potency,[4],"inconclusive: 20.9 µM [cytotoxic, partial curve, poor fit]"
same,Potency,[5],inactive
same,Potency,[6],"inconclusive: 23.5 µM [cytotoxic, single point]"
same,Potency,[16],"inconclusive: 33.2 µM [cytotoxic, single point]"
same,Potency,[7],"inconclusive: 0.003 µM [rising, full curve, poor fit]"
same,Potency,[17],"inconclusive: 18.7 µM [cytotoxic, partial curve]"
same,Potency,[8],"inconclusive: 6.62 µM [cytotoxic, partial curve, poor fit]"
same,Potency,[10],"inconclusive: 29.6 µM [cytotoxic, partial curve, poor fit]"
same,Potency,[11],"inconclusive: 18.7 µM [cytotoxic, single point]"
same,Potency,[13],"inconclusive: 16.6 µM [cytotoxic, partial curve]"
same,Potency,[14],"inconclusive: 16.6 µM [cytotoxic, partial curve, poor fit]"
same,Potency,[15],"inconclusive: 2.96 µM [cytotoxic, full curve]"
same,Potency,[18],"inconclusive: 14.8 µM [cytotoxic, partial curve, poor fit]"
NS(=O)(=O)c1cc2c(cc1Cl)NC=NS2(=O)=O,Potency,[1],inactive
same,viability,[2],active: 201%
same,Potency,[3],inactive
same,Potency,[4],"inconclusive: 0.0037 µM [rising, full curve]"
same,Potency,[5],inactive
same,Potency,[6],"inconclusive: 29.6 µM [cytotoxic, single point]"
same,Potency,[16],"inconclusive: 0.003 µM [rising, full curve, poor fit]"
same,Potency,[7],"inconclusive: 0.0209 µM [rising, full curve]"
same,Potency,[8],inactive
same,Potency,[9],inactive
same,Potency,[10],inactive
same,Potency,[11],inactive
same,Potency,[12],"inconclusive: 26.4 µM [rising, single point]"
same,Potency,[13],"inconclusive: 0.0209 µM [rising, full curve, poor fit]"
same,Potency,[14],inactive
same,Potency,[15],"inconclusive: 37.2 µM [cytotoxic, single point]"
same,Potency,[18],"inconclusive: 37.2 µM [cytotoxic, single point]"
CC(C)(CO)[C@@H](O)C(=O)NCCC(=O)O,Potency,[1],"inconclusive: 7.43 µM [cytotoxic, full curve, poor fit]"
same,Potency,[2],"inconclusive: 0.0132 µM [rising, full curve, poor fit]"
same,Potency,[3],"inconclusive: 9.35 µM [cytotoxic, single point]"
same,Potency,[4],"inconclusive: 33.2 µM [cytotoxic, single point]"
same,Potency,[5],inactive
same,Potency,[6],inactive
same,Potency,[16],inactive
same,Potency,[7],inactive
same,Potency,[17],inactive
same,Potency,[19],"inconclusive: 20.9 µM [cytotoxic, single point]"
same,Potency,[8],"inconclusive: 11.8 µM [cytotoxic, single point]"
same,Potency,[9],"inconclusive: 2.35 µM [cytotoxic, full curve, poor fit]"
same,Potency,[10],inactive
same,Potency,[11],inactive
same,Potency,[12],inactive
same,viability,[13],inactive: 102%
same,Potency,[14],"inconclusive: 33.2 µM [cytotoxic, single point]"
same,Potency,[18],inactive

# Part of the list above, reformatted:
compound	measurement	setting	value
OC[C@H](Cc1ccccc1)Nc1nc(Oc2ccc3c(c2)CCC3)nc2c1ncn2Cc1ccc(-c2ccccc2)cc1	Potency	[4]	inconclusive: 20.9 µM [cytotoxic, partial curve, poor fit]
same	Potency	[5]	inactive
same	Potency	[6]	inconclusive: 23.5 µM [cytotoxic, single point]
same	Potency	[16]	inconclusive: 33.2 µM [cytotoxic, single point]
same	Potency	[7]	inconclusive: 0.003 µM [rising, full curve, poor fit]
same	Potency	[17]	inconclusive: 18.7 µM [cytotoxic, partial curve]
same	Potency	[8]	inconclusive: 6.62 µM [cytotoxic, partial curve, poor fit]
same	Potency	[10]	inconclusive: 29.6 µM [cytotoxic, partial curve, poor fit]
same	Potency	[11]	inconclusive: 18.7 µM [cytotoxic, single point]
same	Potency	[13]	inconclusive: 16.6 µM [cytotoxic, partial curve]
same	Potency	[14]	inconclusive: 16.6 µM [cytotoxic, partial curve, poor fit]
same	Potency	[15]	inconclusive: 2.96 µM [cytotoxic, full curve]
same	Potency	[18]	inconclusive: 14.8 µM [cytotoxic, partial curve, poor fit]
NS(=O)(=O)c1cc2c(cc1Cl)NC=NS2(=O)=O	Potency	[1]	inactive
